# Measurements taken from publication PMC9198273.
# Amino acid sequences for entries named in this document (tags omitted). A change or cut given only in a name is not applied to a line headed by its entry. Chains listed by the source or under a name are the forms on record and can include a tag or linker. Residues count along the entry.
# UniProt P49682: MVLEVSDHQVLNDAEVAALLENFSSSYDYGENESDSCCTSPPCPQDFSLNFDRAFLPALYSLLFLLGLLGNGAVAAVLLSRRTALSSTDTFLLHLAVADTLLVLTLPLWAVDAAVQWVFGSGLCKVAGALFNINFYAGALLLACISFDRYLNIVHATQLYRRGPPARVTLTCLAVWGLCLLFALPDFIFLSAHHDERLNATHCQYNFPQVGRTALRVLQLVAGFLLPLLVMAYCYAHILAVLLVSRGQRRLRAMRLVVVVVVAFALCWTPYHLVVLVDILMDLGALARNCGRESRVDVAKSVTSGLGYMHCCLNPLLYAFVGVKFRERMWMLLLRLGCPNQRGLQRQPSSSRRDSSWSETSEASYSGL
# CXCR3-B C-terminally fused to mNeonGreen (P49682, form named): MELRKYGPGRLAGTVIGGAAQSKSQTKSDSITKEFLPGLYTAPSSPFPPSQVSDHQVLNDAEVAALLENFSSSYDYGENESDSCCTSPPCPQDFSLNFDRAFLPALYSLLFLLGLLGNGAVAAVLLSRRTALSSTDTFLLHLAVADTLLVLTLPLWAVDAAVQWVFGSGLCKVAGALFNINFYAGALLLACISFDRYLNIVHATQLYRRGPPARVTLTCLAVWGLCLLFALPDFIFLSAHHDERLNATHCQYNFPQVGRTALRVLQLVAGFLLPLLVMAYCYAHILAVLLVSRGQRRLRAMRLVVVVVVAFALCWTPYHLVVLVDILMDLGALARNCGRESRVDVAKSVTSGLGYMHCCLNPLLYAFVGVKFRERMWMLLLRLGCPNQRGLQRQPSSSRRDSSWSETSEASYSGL
# UniProt P49407: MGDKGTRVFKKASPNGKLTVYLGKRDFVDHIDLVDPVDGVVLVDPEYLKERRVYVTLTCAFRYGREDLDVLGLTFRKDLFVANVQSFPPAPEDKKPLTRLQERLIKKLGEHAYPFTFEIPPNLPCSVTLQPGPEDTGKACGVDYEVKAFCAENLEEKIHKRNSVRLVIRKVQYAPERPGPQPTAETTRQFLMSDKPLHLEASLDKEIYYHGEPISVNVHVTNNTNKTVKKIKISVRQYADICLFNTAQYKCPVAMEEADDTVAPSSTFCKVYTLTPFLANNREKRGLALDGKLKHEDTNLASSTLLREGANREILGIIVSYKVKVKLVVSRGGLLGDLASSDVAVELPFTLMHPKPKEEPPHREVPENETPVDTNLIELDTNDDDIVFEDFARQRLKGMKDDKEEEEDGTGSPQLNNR
# UniProt P13501, residues 24-91: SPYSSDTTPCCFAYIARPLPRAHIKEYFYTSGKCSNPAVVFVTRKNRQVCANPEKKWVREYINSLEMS
# Results are given in words; binding and its absence hold for the method and conditions named. For some assays here: In cells and extracts the contact can be indirect. Some binding calls cover weakened binding; strength is not graded here.
# Columns and labels:
# [1] = biological target: CXCR3-B C-terminally fused to mNeonGreen (human) (UniProt P49682); assay: FRET or BRET; NanoBRET in live HEK293T cells, nanoluciferase-β-arrestin and receptor-mNeonGreen; stimulated with CXCL11 or CXCL10
# [2] = biological target: CXCR3-A C-terminally fused to mNeonGreen (human) (UniProt P49682); assay: as above
# [3] = biological target: CXCR3-B C-terminally fused to mNeonGreen (human) (UniProt P49682); assay: FRET or BRET; NanoBRET in live HEK293T cells, nanoluciferase-β-arrestin and receptor-mNeonGreen; stimulated with CXCL10
# [4] = biological target: CXCR3-B C-terminally fused to mNeonGreen (human) (UniProt P49682); assay: FRET or BRET; NanoBRET in live HEK293T cells, nanoluciferase-β-arrestin and receptor-mNeonGreen; stimulated with CXCL9
# [5] = biological target: CXCR3-A C-terminally fused to mNeonGreen (human) (UniProt P49682); assay: as above
# [6] = biological target: CXCR3-A C-terminally fused with SmBiT (human) (UniProt P49682); assay: split reporter; live HEK293T cells co-transfected with receptor-SmBiT and LgBiT-miniG or LgBiT-β-arrestin; coelenterazine H in Opti-MEM; stimulated with CXCL11, CXCL10 or CXCL9 (concentration-response)
# [7] = biological target: CXCR3-B C-terminally fused with SmBiT (human) (UniProt P49682); assay: as above
# [8] = biological target: CXCR3-A C-terminally fused with SmBiT (human) (UniProt P49682); assay: split reporter; live U-87 MG cells, receptor-SmBiT and LgBiT-β-arrestin; stimulated with CXCL11 or CXCL10
# [9] = biological target: CXCR3-B C-terminally fused with SmBiT (human) (UniProt P49682); assay: as above
# [10] = biological target: CXCR3-A C-terminally fused with SmBiT (human) (UniProt P49682); assay: split reporter; live HEK293T cells, receptor-SmBiT and LgBiT-β-arrestin; stimulated with CXCL9
# [11] = biological target: CXCR3-B C-terminally fused with SmBiT (human) (UniProt P49682); assay: as above
# [12] = biological target: CXCR3-B C-terminally fused with SmBiT (human) (UniProt P49682); assay: split reporter; live HEK293T cells, receptor-SmBiT and LgBiT-β-arrestin; stimulated with CXCL10
# [13] = biological target: CXCR3-A C-terminally fused with SmBiT (human) (UniProt P49682); assay: split reporter; live U-87 MG cells, receptor-SmBiT and LgBiT-β-arrestin; stimulated with CXCL9
# [14] = biological target: CXCR3-B C-terminally fused with SmBiT (human) (UniProt P49682); assay: as above
# [15] = biological target: CXCR3-B C-terminally fused with SmBiT (human) (UniProt P49682); assay: split reporter; live U-87 MG cells, receptor-SmBiT and LgBiT-β-arrestin; stimulated with CXCL10
# [16] = biological target: CXCR3-B C-terminally fused to mNeonGreen (human) (UniProt P49682); assay: flow cytometry on cells; HEK293T cells transiently expressing receptor-mNeonGreen incubated 1 hour at 37°C (uptake) or 4°C with 33 nM Alexa Fluor 647-labeled chemokine, with or without proteinase K treatment afterwards; only the binder purified
# [17] = biological target: CXCR3-A C-terminally fused to mNeonGreen (human) (UniProt P49682); assay: as above
substance,measurement,setting,value
β-arrestin-1 N-terminally fused with nanoluciferase (from UniProt P49407 1-418),binding,[1],binds
same,binding,[2],binds
same,binding,[3],binds weakly
same,binding,[4],binds weakly
same,binding,[5],binds weakly
β-arrestin-1 N-terminally fused with LgBiT (from UniProt P49407 1-418),binding,[6],binds
same,binding,[7],binds
same,binding,[8],binds
same,binding,[9],binds
same,binding,[10],binds weakly
same,binding,[11],binds weakly
same,binding,[12],binds weakly
same,binding,[13],binds weakly
same,binding,[14],binds weakly
same,binding,[15],binds weakly
CCL5 coupled to Alexa Fluor 647 (from UniProt P13501 24-91) (ligand),binding,[16],no binding (tested: 33 nM)
same,binding,[17],no binding (tested: 33 nM)
